About 210 (0.4%) of roughly 52,000 sequences were called active.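 The calls were made as follows: active = gene whose silencing raises cell survival under the drug, median off-target-corrected z-score across its silencing RNAs 2 or more; inactive = the rest.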 This is one part of the list.
assay: Resistance to Poly (ADP-Ribose) Polymerase inhibitor: Gene Identification via Genome-wide siRNA Screen; settings: mouse BRCA2 R2336H ES cells, olaparib, CellTiter-Glo viability; active compounds read high
How it was run: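 Genome-wide siRNA screen (3 siRNAs/gene, 20 nM) in mouse ES cells carrying hypomorphic BRCA2 R2336H; olaparib 500 nM added 48 h post-transfection, CellTiter-Glo viability 72 h later. Normalized to plate-median negative control; MAD z-scores, gene median, seed-adjusted.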

Sequence | z-score
GGAAAAGGAAGAACUGAUUTT against Sptlc1 | inactive: -0.0342
GCCUUGUGGGAAGCAAAAATT against Pcyt2 | inactive: 0.779
GGGUCAAUCAGAAGCUAGGTT against Creb3l4 | inactive: 0.16
GGUCCUACCUCAACAUCUGTT against Cap2 | inactive: 0.427
CCCGUGCCUUCCUUAAAGCTT against 9030405D14Rik | inactive: 0.576
GGGACUUGUUGAGUUUAUATT against Ssa2 | inactive: -0.00613
GGGAGAUCUCCAACACCAATT against B230317C12Rik | inactive: 1.46
GCAUGUUUUGGUGUAUAGUTT against Arl4 | inactive: -0.633
CCUUGAGAAUAUGCUAAAATT against Abca15 | inactive: 2.02
GGAAGUUAGUGAGUCUAUGTT against Rel | inactive: -1.3
GGAAUAGGCCUUCUUGCUGTT against Matr3 | inactive: -1.01
GGUUACAGAACUCAACAAUTT against Dok5 | inactive: 0.397
UUGGGAAAACCAUGAUGCATT against 2010100O12Rik | inactive: -0.506
GGUUCGAGAAAACAACUACTT against 2610027O18Rik | inactive: 0.402
GCAUUGAUGUGAUUGAACCTT against Plxnb3 | inactive: -0.0869
CGUGAUGUACAUGCAGGAUTT against 4930570C03Rik | inactive: -0.669
CCUUUUACUCUAACGGACUTT against 4921507P07Rik | inactive: -1.11
GGAUGAUCAAAGCAUUGAUTT against Dmtf1 | inactive: -1.36
GCUCAUCCAUCGUAGUAAGTT against Gm93 | inactive: 0.507
GCUGCUGGAAACUAGACUGTT against Cyp2b13 | inactive: -0.961
CCUGCAAUCAAAACAUCAATT against V1rc1 | inactive: 1.73
GUUAUCAGGAAGGAAAGCCTT against 1110058L19Rik | inactive: -0.1
GGCAUCGUCUGCACAAAGATT against Fbn2 | inactive: 1.93
GCCAGAACUGAUCGAAAUGTT against Myh2 | inactive: 1.63
CCCGCACUCUUAGCAAUUATT against BC034507 | inactive: -0.559
CCCAAUUGUAGAGUCAUGGTT against 1810048P08Rik | inactive: 0.934

At a glance, some entries already given:
Sequence | z-score
UUGGGAAAACCAUGAUGCATT against 2010100O12Rik | inactive: -0.506
GGUUCGAGAAAACAACUACTT against 2610027O18Rik | inactive: 0.402
GCAUUGAUGUGAUUGAACCTT against Plxnb3 | inactive: -0.0869

Further results:

Sequence | z-score
GGCACUACUUCUAUCGUAGTT against Repin1 | inactive: 0.153
GCACUUUGUAUGUCUAUCUTT against Tnfaip1 | inactive: -0.337
GGAAGAUGUUUUCAGACUCTT against Polm | inactive: 0.642
CCGUAAUUACCUAAAACUCTT against 4933431N12Rik | inactive: -0.168
GGAUGUGCUGACCUUACAGTT against Gaa | inactive: 0.312
GCAUAAUGAAGUUCCAAAUTT against Cast1 | inactive: 0.19
GGUAUGUGAUACAUCUAUUTT against Zfp52 | inactive: -0.301
GGUUUGCCCAGGAAUACAATT against Adprhl2 | inactive: -1.28
CCUUCCUAAUCUCUUGUUCTT against Rfc4 | inactive: -0.109
GGCCCUCAACCUAAUUAUGTT against Sec24c | inactive: 0.96
GUAAGUUGUUUGAGGAAAGTT against Defb3 | inactive: 0.755
CGCAAGCCAAUCUUCGAAUTT against A230050P20Rik | inactive: 0.522
GGAGGUGGUACAAUACACCTT against Gsg1 | inactive: 0.036
CAAUGUGCAGAGUUUCCGATT against LOC547349 | inactive: -1.17
GCAGCAUGCCUGAAUAUUUTT against 2510048K03Rik | inactive: 1.49
GUUCAACGAGAGUUCCAGUTT against Olfr898 | inactive: -0.166
GGUCAAGUGCGAGAAACUCTT against Mafb | inactive: -0.934
GGUAAAGUAGGGAUGGAAUTT against Inpp4b | inactive: 2.01
GGACAGAAGAAGAAAGCCCTT against Gpr22 | inactive: 0.46
GCCAUGUCAAUCAAUCACUTT against 8430423A01Rik | inactive: 0.706
CCAUGGCGAUGUCAUGUUCTT against Kcnrg | inactive: 1.05
GGUCUGGUGUUGUAGGAUATT against Map1lc3b | inactive: -0.598
CCAACACGCGCUCUUUUGATT against Gm1568 | inactive: 0.259
GUGUCAUUUCCCGGGACAUTT against Atp5g1 | inactive: -0.442
GGAUAUCGAGGAGAUGAUCTT against Aoc3 | inactive: 1.68
CGAGAUCUCACAACUUAUATT against 4930431B11Rik | inactive: 1.05

An excerpt of these results, with each value named:
GCCUUGUGGGAAGCAAAAATT against Pcyt2
  z-score: inactive: 0.779
CCCGCACUCUUAGCAAUUATT against BC034507
  z-score: inactive: -0.559

Later entries.

Sequence | z-score
GGUUAAAAUGAGCUUGUUGTT against Rngtt | inactive: -0.395
GGAAGAAGAAGUUAUUGUGTT against BC025446 | inactive: 0.193
GUCAUCAGGACUGGGAAGUTT against Sprr2b | inactive: -1.13
CCGUCGUCCUAGAAAAACCTT against 4921525L17Rik | inactive: 1.49
CGCAGUCACACCUUGUUAUTT against Cds2 | inactive: 1.15
CCGUUAAGGUUGAUCUAAUTT against 2810027O19Rik | inactive: -0.419
GGUUUCCUUUUUGUUCAUUTT against Dlgh3 | inactive: 0.128
GGGAAAAAUAUCAGUUAUGTT against Khdrbs1 | active: 1.08
GGUGCUAAAAACUCAAGUCTT against Tctex1 | inactive: -0.513
GGGCGAGAAGUUUAAACUUTT against Dnaja4 | inactive: -0.692
GGUAUUGUGGCCAGUAUUUTT against Ptdss2 | inactive: -0.247
GCUACAGAUACCUCGGAUATT against Psme1 | inactive: -1.15
GGGAAAUGGUGAAUCACAGTT against Dpp8 | inactive: 0.967
GGAAGACUAUUUUCUGUAUTT against Gabarapl1 | inactive: 1.13
CCUGAUAUACCAGCCACCGTT against Pxmp3 | inactive: 0.939
GGAGCUGUUUACCAUGUCATT against Rgl1 | inactive: -1.19
UGCCGCUGCUGAUCCUUACTT against D11Bwg0517e | inactive: -0.161
GGUAACCUAGUGUAAGUUUTT against 2410024A21Rik | inactive: -1.12
GGACAUCGGCUACAACACCTT against Fzd10 | inactive: 0.716
CGCCUUAAACGAAGCUGCUTT against 1700034E13Rik | inactive: 0.557
GGCAUGCAGGGUAUUGCGUTT against Chtf18 | inactive: 0.0837
CCAGAUCCGGACAAUUGACTT against Ppp4c | inactive: 1.13
GGAAGCUACGCUCAAUGAGTT against Dkk3 | inactive: -0.231
GGUUAUUCUGGCUAUGGGCTT against Taf15 | inactive: 1.07
GGUGAGCAAGUCGAAGAGATT against Igsf3 | inactive: -1.28
GGUAACGAUCCACUUAAAGTT against 0610040J01Rik | inactive: 0.159

Sequence | z-score
GGUACUGAUCAGCAAGACGTT against 4921526F01Rik | inactive: 0.429
CCAUGCACAAUUACAAGCUTT against Ret | inactive: 1.48
GGAAAGACACAGAUAAUAATT against Arvcf | inactive: -1.21
GGUCACAGACAUUCCCGAATT against Atad2 | inactive: 0.184
GGAGACUCAGGAAAAAAUUTT against Olfr1424 | inactive: 0.238
GAUAAAAUCGGACUGAUAATT against Olfr1079 | inactive: 0.959
GCCUUAAUGAGGCUACUAGTT against Art2a | inactive: -0.0101
GGCAAAAGAACAAGAAACUTT against Orc1l | inactive: -0.536
GGAAGUGACCUGUCUGAAGTT against D7Bwg0611e | inactive: -0.874
GGUGCAGAGAAGAACAAGATT against Inpp1 | inactive: 2.6
GGGUGACCUUGAUUCACACTT against Cda | inactive: 0.199
GGUGGAUAUCCUAUAACUATT against 4930402H24Rik | inactive: 0.631
GCCAUACUACGACAUGACATT against Sstr2 | inactive: 0.21
CCCGUGUCUAUGUGAAAAUTT against Olfr1015 | inactive: -2.5
GGCCUAGCUGUAUGUUUAGTT against Tex19 | inactive: -0.148
CCAAAGAGAUAUCCCUCCCTT against Olfr1350 | inactive: -0.954
GAGCAGAACCGCAUCAUAUTT against Ucn | inactive: -1.06
GGGUCAUCGGAACAGAACUTT against Sult3a1 | inactive: 0.137
GGUAGUGGGUGUCAAUGCATT against 9330180L21Rik | inactive: 1.68
GGAAAGACUUACCAGAAUATT against Smarca2 | inactive: 0.313
GGCAAGAUGCACAAGACUUTT against Cacna1s | inactive: -0.328
GGAUAUGCUCAGAGGUUUUTT against Pex11c | inactive: 0.312
GGAUUGCUCUAGCCAUUGUTT against Olfr691 | inactive: 0.116
GGUCAACAGUUACAUCGAGTT against Vps33a | inactive: -0.77
CCUGAACUAUAGAUGGAUUTT against Manba | inactive: -0.266
CCGACUGCUUAAUUACAAGTT against 1700007I06Rik | inactive: 0.104
